Data from EP1997826A2 (Tecnogen S.p.A., priority 2007, dated 2008).

Test: general procedure: Fmoc solid-phase peptide synthesis; polystyrene (1% divinylbenzene, 100-200 mesh) derivatized with hydroxymethylphenoxyl group, 0.84 meq/g (Novabiochem); HOBt/HBTU
Conditions: trifluoroacetate salt

(H-L-Cys(p-MeOBzl)-D-Arg-D-Thr-D-Tyr)4-L-Lys2-L-Lys-L-Lys-OH
step yield (purification step, purification yield): 24.8% | crude HPLC purity (whole synthesis, 225 nm, scale of the general procedure 1.44 mmol): 75% | final HPLC purity (whole synthesis, analytical RP-HPLC, C18 Jupiter, 225 nm, scale of the general procedure 1.44 mmol): 99% | crude yield (whole synthesis, calculated from the initial 1.44 mmol, scale 1.44 mmol): 73.4% | crude mass (whole synthesis, scale 1.44 mmol): 4.26 g
